Where “and” joins values, the source holds several entries; their conditions need not be identical. Identical values can stand only once. ± gives the standard deviation of the averaged measurements. Over roughly 3,800 compounds, “cell shape (eccentricity) Z-score vs DMSO control” has its median near 1.1; the lowest 2% begin near -4.7. The list shows a part of the results.
The molecules below were run on human monocyte-derived macrophages (M0) (assay: cell shape (eccentricity) Z-score vs DMSO control; higher = more elongated, M2-like morphology). Conditions: 20 µM; 24 h; macrophage state: M0 (M-CSF).

Row | Compound | cell shape (Z-score)
1 | CC(C)NCC(O)COc1ccc(COCCOC(C)C)cc1 (stereo not given) | -0.551
2 | COC(=O)c1cc(S(C)(=O)=O)ccc1OC | 1.25
3 | C[C@@H]1O[C@@H](O[C@H]2[C@@H](O)[C@@H](C)O[C@@H](O[C@H]3[C@H](O)[C@@H](O)[C@H](O[C@H]4CC[C@@]5(C)C(CC[C@]6(C)C5C=CC5=C7CC(C)(C)CC[C@]7(CO)CC[C@]56C)[C@]4(C)CO)O[C@@H]3CO)[C@@H]2O[C@@H]2O[C@H](CO)[C@@H](O)[C@H](O)[C@H]2O)[C@H](O)[C@H](O)[C@H]1O (stereo not given in full) | -1.32
4 | CC(C)=CCC/C(C)=C/CC(O)/C(C)=C/Cc1cc(C(=O)O)ccc1O (stereo not given) | -0.302 ± 2.4
5 | CSc1ccc2c(c1)N(CCC1CCCCN1C)c1ccccc1S2 (stereo not given) | 2.4
6 | COC(=O)C1(Cc2ccc(O)c(CC=C(C)C)c2)OC(=O)C(OC)=C1c1ccc(O)c(O)c1 (stereo not given) | 2.56
7 | C[C@@H]1CN([C@H](C)CO)S(=O)(=O)c2ccc(C#Cc3ccncc3)cc2O[C@H]1CN(C)C(=O)Nc1ccc2c(c1)OCO2 | 3.81
8 | O=C1CCC(N2C(=O)c3ccccc3C2=O)C(=O)N1 (stereo not given) | 1.24 and 2.65
9 | OCc1cc(C(O)CNCCCCCCOCCCCc2ccccc2)ccc1O (stereo not given) | 2.86
10 | COC(=O)c1cc(O)cc(OC)c1C(=O)c1c(O)cc(C)cc1O | -0.654 ± 0.67
11 | CO[C@@H]1C=C[C@@]23c4cc5c(cc4CN(CC2O)[C@H]3C1)OCO5 (stereo not given in full) | -3.22
12 | COc1cc(-c2cc(=O)c3c(O)c(OC)c(OC)c(OC)c3o2)cc(OC)c1OC | 1.41 ± 0.82
13 | CN1CCc2ccccc2Cc2[nH]c3ccccc3c2CC1 | 1.9
14 | CC1CC(=O)c2cc(O)c(O)cc2C1 (stereo not given) | 1.47 ± 2.1
15 | COC(=O)C1=C[C@@H](O)[C@@H](O)[C@H](O[C@@H]2O[C@H](CO)[C@@H](O)[C@H](O)[C@H]2OC(=O)/C=C/c2ccccc2)C1 | 3.28
16 | C[C@@H]1O[C@@H](OC[C@H]2O[C@@H](OCCc3ccc(O)c(O)c3)[C@H](O)[C@@H](O)[C@@H]2OC(=O)/C=C/c2ccc(O)c(O)c2)[C@H](O)[C@H](O)[C@H]1O | 0.476
17 | Cn1c(=O)c2[nH]cnc2n(C)c1=O | -1.79
18 | C/C(=C\C(=O)O)CCC1C(C)(O)CCC2C(C)(CO)CCCC12C (stereo not given) | 2.12 ± 2.3
19 | C=C1C(NC)CCC23CC24CCC2(C)C(C(C)N(C)C(C)=O)C(O)CC2(C)C4CCC13 (stereo not given) | -0.492
20 | O=C(N[C@H](COC(=O)[C@H](Cc1ccccc1)NC(=O)c1ccccc1)Cc1ccccc1)c1ccccc1 | 1.44
21 | CCOC(=O)[C@H](CCc1ccccc1)N[C@H]1CCCN2CCC[C@@H](C(=O)O)N2C1=O | 2.15
22 | CC(=O)c1ccc2c(c1)N(CCCN(C)C)c1ccccc1S2 | 3.27
23 | O=C(O)[C@H](Cc1c[nH]c2ccccc12)N1C(=O)c2ccccc2C1=O | 2.94
24 | CS(=O)(=O)c1ccc([C@@H](O)[C@@H](CO)NC(=O)C(Cl)Cl)cc1 | -1.18
25 | COc1ccc(-c2coc3c(O)c(O)c(OC)cc3c2=O)cc1 | 2.32

Row | Compound | cell shape (Z-score)
26 | CN(C)CCN(Cc1cccs1)c1ccccn1 | 2.95
27 | CS(=O)(=O)c1ccc(-c2cc(Br)sc2-c2ccc(F)cc2)cc1 | 1.89
28 | COc1cc2nc3occc3c(OC)c2cc1OCC(OC(C)=O)C(C)(C)OC(C)=O (stereo not given) | 0.556
29 | CNc1cc(NS(=O)(=O)c2ccc(N)cc2)nc(NC)n1 | 3.31
30 | CN1C(=O)CC[C@H]1c1cccnc1 | -0.452
31 | CC(NC(=NC#N)Nc1ccncc1)C(C)(C)C (stereo not given) | 0.258
32 | COc1cc2ncnc(Nc3ccc(Cl)cc3F)c2cc1OC | -0.304
33 | Oc1ccc(C2CNCCc3c2cc(O)c(O)c3Cl)cc1 (stereo not given) | 1.75
34 | COc1ccc2c(c1)O[C@H]1c3ccc(OC)cc3OC[C@@H]21 | 3.09
35 | CNc1cc2ncnc(Nc3cccc(Br)c3)c2cc1N | 1.73
36 | C=C1CC2C3C=C(C)C4=CC(=O)CC[C@]4(C)C3CC[C@]2(C)[C@@]1(OC(C)=O)C(C)=O (stereo not given in full) | 0.0296
37 | CC1OC(O[C@H]2[C@@H](O)C[C@@]3(C)C([C@H](O)C[C@]4(C)C3CC=C3[C@@H]5CC(C)(C)CC[C@]5(C(=O)OC5OC(C)C(OC6OCC(OC7OCC(O)C(OC8OCC(O)C(O)C8O)C7O)C(O)C6O)C(O)C5O)CC[C@]34C)[C@]2(C)CO)C(O)C(OC2OC(CO)C(O)C(O)C2O)C1O (stereo not given in full) | 0.543
38 | COc1cc(OC)c(C(=O)/C=C/c2ccccc2)c(O)c1O | 0.621
39 | C[C@@H]1O[C@@H](Oc2cc(O)c3c(=O)c(O[C@@H]4O[C@@H](C)[C@H](O)[C@@H](O[C@@H]5OC[C@@H](O)[C@H](O)[C@H]5O)[C@H]4O[C@@H]4O[C@H](CO)[C@@H](O)[C@H](O)[C@H]4O)c(-c4ccc(O)cc4)oc3c2)[C@H](O)[C@H](O)[C@H]1O | 1.14
40 | CN(CCOc1ccc(NS(C)(=O)=O)cc1)CCc1ccc(NS(C)(=O)=O)cc1 | -1.6
41 | CCCCCCN(CCCCCC)C(=O)Cc1c(-c2ccc(F)cc2)[nH]c2ccccc12 | 5.07
42 | COC1=C(N)C(=O)c2nc(-c3nc(C(=O)O)c(C)c(-c4ccc(OC)c(OC)c4O)c3N)ccc2C1=O | 0.0737
43 | C=C[C@](C)(CC[C@@]1(C)[C@H](C)C[C@H](O[C@@H]2O[C@@H](C)[C@H](O[C@@H]3O[C@H](COC(C)=O)[C@@H](O)[C@H](O)[C@H]3O)[C@@H](O)[C@H]2O)[C@@]2(C)C(C)=CCC[C@H]12)O[C@@H]1O[C@H](C)[C@H](O[C@@H]2O[C@@H](C)[C@H](O)[C@@H](O)[C@H]2O)[C@H](O)[C@H]1O | -0.272
44 | CC[C@H]1OC(=O)[C@H](C)[C@@H](O[C@H]2C[C@@](C)(OC)[C@@H](O)[C@H](C)O2)[C@H](C)[C@@H](O[C@@H]2O[C@H](C)C[C@H](N(C)C)[C@H]2O)[C@](C)(OC)C[C@@H](C)C(=O)[C@H](C)[C@@H](O)[C@]1(C)O | -0.775
45 | C=C1c2cccc(O)c2C(=O)C2C(=O)[C@]3(O)C(=O)C(C(N)=O)C(=O)[C@@H](N(C)C)[C@@H]3[C@@H](O)[C@H]12 (stereo not given in full) | 3.6
46 | CCC(c1ccc(O)cc1)C(CC)c1ccc(O)cc1 (stereo not given) | 1.37
47 | C=C[C@@]1(C)CC(=O)[C@@]2(O)[C@](C)(O1)[C@@H](OC(C)=O)[C@@H](O)C1C(C)(C)CC[C@H](O)[C@@]12C (stereo not given in full) | 6.05
48 | CC(C)NCC(O)c1ccc(NS(C)(=O)=O)cc1 (stereo not given) | 1.52
49 | O=c1c(O)c(-c2ccccc2)oc2cc(O)ccc12 | 2.46
50 | C[C@]12C=CC(=O)C=C1CCC1C2[C@@H](O)C[C@@]2(C)C1CC[C@]2(O)C(=O)COP(=O)(O)O (stereo not given in full) | -1.89

Row | Compound | cell shape (Z-score)
51 | Cc1nc(C)c(Cl)c(O)c1Cl | 0.0276
52 | C[C@H]1CC(O)C23COC(=O)[C@@H]2CCC[C@@H]3[C@@]12C[C@@H](c1ccoc1)OC2=O (stereo not given in full) | 4.06
53 | COc1cc2nc(N3CCN(C(=O)C4COc5ccccc5O4)CC3)nc(N)c2cc1OC (stereo not given) | 0.101
54 | CCN(CC)CCCC(C)Nc1c2ccc(Cl)cc2nc2ccc(OC)cc12 (stereo not given) | 3.34
55 | COc1cc(C)c2c(c1C=O)Oc1c(c(C)c(O)c3c1C(O)OC3=O)OC2=O (stereo not given) | -1.59
56 | C=CCc1ccc(O)c(-c2ccc(O)c(CC=C)c2)c1 | 0.0605
57 | CC1(C)CC[C@]2(C(=O)O)CC[C@]3(C)C(=CCC4[C@@]5(C)C[C@@H](O)[C@H](O)C(CO)(CO)C5CC[C@]43C)C2[C@@H]1O (stereo not given in full) | 1.72
58 | CN(C)CC/C=C1\c2ccccc2Sc2ccc(Cl)cc21 | 1.96
59 | Nc1ccccc1NC(=O)c1ccc(CNc2nccc(-c3cccnc3)n2)cc1 | -11.8
60 | O=C(COc1c(Cl)cc(Cl)cc1Cl)N/N=C/c1ccc[nH]1 | 2.78
61 | O=C(CC(=O)c1ccc(O)cc1)OC[C@H]1O[C@@H](Oc2ccc(O)cc2)[C@H](OC(=O)c2ccc(O)cc2)[C@@H](O)[C@@H]1O | -0.615
62 | CCCCn1c(=O)c2[nH]c(C34CC5CC(CC3C5)C4)nc2n(CCCO)c1=O | -0.852
63 | O=C1OC(OC(=O)c2cccnc2Nc2cccc(C(F)(F)F)c2)c2ccccc21 (stereo not given) | 2.97
64 | COC(=O)[C@@]12CCC(C)(C)C[C@@H]1[C@@H]1C(=O)C=C3[C@]4(C)C=C(C#N)C(=O)C(C)(C)[C@H]4CC[C@]3(C)[C@@]1(C)CC2 | -1.78
65 | C#C[C@]1(O)CCC2C3CCC4=CC(=O)CC[C@@H]4C3CC[C@@]21C (stereo not given in full) | 1.56
66 | CCN(CC)CCCCC1CCN(CC(=O)N2c3ccccc3C(=O)Nc3cccnc32)CC1 | 2.23
67 | CCCC1O[C@@H]2CC3C4CCC5=CC(=O)C=CC5(C)C4[C@@H](O)CC3(C)[C@]2(C(=O)CO)O1 (stereo not given in full) | 2.13
68 | C[C@@H]1O[C@@H](O[C@H]2[C@@H]3C=CO[C@@H](O[C@@H]4O[C@H](CO)[C@@H](O)[C@H](O)[C@H]4O)[C@@H]3[C@@]3(CO)O[C@@H]23)[C@H](OC(=O)/C=C/c2ccccc2)[C@H](OC(=O)/C=C/c2ccccc2)[C@H]1O | 0.104 ± 3.2
69 | Cc1cc(C)c(CNC(=O)c2cc(-c3ccc(N4CCNCC4)nc3)cc3c2cnn3C(C)C)c(=O)[nH]1 | 3.48
70 | CC1(C)CC[C@@]2(C(=O)O[C@@H]3O[C@H](CO)[C@@H](O)[C@H](O)[C@H]3O)C(C1)C1=CCC3[C@@]4(C)CC[C@@H](O[C@@H]5O[C@H](CO)[C@@H](O)[C@H](O)[C@H]5O[C@@H]5O[C@H](CO)[C@@H](O)[C@H](O)[C@H]5O)C(C)(C)C4CC[C@@]3(C)[C@]1(C)C[C@H]2O (stereo not given in full) | 0.124 ± 0.97
71 | CCCCC/C=C\C/C=C\C/C=C\C/C=C\CCCC(=O)O | -0.0753
72 | CCCNC(=O)N1N=C(c2ccc(N)cc2)c2cc3c(cc2C1C)OCO3 (stereo not given) | 2.69
73 | COC(=O)C1=COC(O[C@@H]2O[C@H](CO)[C@@H](O)[C@H](O)[C@H]2O)[C@@H]2[C@@](C)(O)CC[C@]12O (stereo not given in full) | 0.697
74 | C=C1C(=O)O[C@H]2CC(C)C3CC[C@@]4(C)O[C@@]34CC12 (stereo not given in full) | 0.597 ± 0.82
75 | CC(=O)O[C@@H]1[C@@H](O)[C@H](C)O[C@@H](Oc2c(-c3ccc(O)cc3)oc3cc(O[C@@H]4O[C@@H](C)[C@H](O)[C@@H](O)[C@H]4O)cc(O)c3c2=O)[C@@H]1O | 1.24

Reference: the supplement of paper PMC7858590
